According to PMC9105187:

Assays:
[1] = target: Bcl-2 nineteen kilodalton interacting protein 3 (rat) (rat (endogenous in LV myocardium and adult cardiac myocytes)); test: co-IP; 250 ug lysate of rat LV myocardium, Sham (n = 3) and pressure overload HFrEF (n = 3), with 5 ug mouse monoclonal BNIP3 antibody (Abcam ab10433), Dynabeads Protein G; western blot
[2] = target: Bcl-2 nineteen kilodalton interacting protein 3 (rat) (rat (endogenous in LV myocardium and adult cardiac myocytes)); test: co-IP; 250 ug lysate of normal rat adult cardiac myocytes (n = 3) with 5 ug mouse monoclonal BNIP3 antibody (Abcam ab10433), Dynabeads Protein G; western blot

- binding [1]: binds
- binding [2]: binds
B1: mt-proton/calcium exchanger protein LETM1 (rat) (protein, UniProt Q5XIN6 115-739)
chain: EDSMIEKSLKSLKDKNKKLEEGGPVYSPPAQVVVKKSLGQKILDELKHYYHGFRLLWIDTKIAARMLWRILNGHTLTRRERRQFLRICADLFRLVPFLVFVVVPFMEFLLPVVVKLFPNMLPSTFETQSIKEERLKKELRVKLELAKFLQDTIEEMALKNKAAKGNATKDFSAFFQKIRETGERPSNEEIMRFSKLFEDELTLDNLTRPQLVALCKLLELQSIGTNNFLRFQLTMRLRSIKADDKLISEEGVDSLTVKELQAACRARGMRALGVTEDRLKGQLKQWLDLHLYHEIPTSLLILSRAMYLPDTLSPADQLKSTLQTLPEIVAKEAQVKAAEVEGEQVDNKAKLEATLQEEAAIQQEHLEELKRAAETAKDIQPEVAEATVPGRPGAELQPKMVDVIPPSEILKDTAPVLEGLKGEEITKEEIDILSDACSKLKEQKKSLTKEKEELELLKEDVQDYSEDLQEIKKELSKTGDEKYIEESTASKRLSKRVQQMIGQIDGLITQLETTQQNGKLDPAAASSPTGESVISVDELISAMKQIKHIPEHKLISLTSALDENKDGNINIDDLVKVIDLVNKEDVQISTTQVAEIVATLEKEEKVEEKEKAKEKAEKEAAEVKN

These are yes or no findings as the source states them, for the method shown. Binding seen in cells or lysates may run through a third protein. Binding can be weak; no strength is given.
